Assay results taken from paper PMC6733923.
These are yes or no findings as the source states them, for the method shown. In cells and extracts the contact can be indirect. Here binding means that the protein was enriched with, or labelled near, the bait; the list need not be complete.

Protein sequences, listed by entry. Tags and fused reporters are not part of them.
UniProt Q05397: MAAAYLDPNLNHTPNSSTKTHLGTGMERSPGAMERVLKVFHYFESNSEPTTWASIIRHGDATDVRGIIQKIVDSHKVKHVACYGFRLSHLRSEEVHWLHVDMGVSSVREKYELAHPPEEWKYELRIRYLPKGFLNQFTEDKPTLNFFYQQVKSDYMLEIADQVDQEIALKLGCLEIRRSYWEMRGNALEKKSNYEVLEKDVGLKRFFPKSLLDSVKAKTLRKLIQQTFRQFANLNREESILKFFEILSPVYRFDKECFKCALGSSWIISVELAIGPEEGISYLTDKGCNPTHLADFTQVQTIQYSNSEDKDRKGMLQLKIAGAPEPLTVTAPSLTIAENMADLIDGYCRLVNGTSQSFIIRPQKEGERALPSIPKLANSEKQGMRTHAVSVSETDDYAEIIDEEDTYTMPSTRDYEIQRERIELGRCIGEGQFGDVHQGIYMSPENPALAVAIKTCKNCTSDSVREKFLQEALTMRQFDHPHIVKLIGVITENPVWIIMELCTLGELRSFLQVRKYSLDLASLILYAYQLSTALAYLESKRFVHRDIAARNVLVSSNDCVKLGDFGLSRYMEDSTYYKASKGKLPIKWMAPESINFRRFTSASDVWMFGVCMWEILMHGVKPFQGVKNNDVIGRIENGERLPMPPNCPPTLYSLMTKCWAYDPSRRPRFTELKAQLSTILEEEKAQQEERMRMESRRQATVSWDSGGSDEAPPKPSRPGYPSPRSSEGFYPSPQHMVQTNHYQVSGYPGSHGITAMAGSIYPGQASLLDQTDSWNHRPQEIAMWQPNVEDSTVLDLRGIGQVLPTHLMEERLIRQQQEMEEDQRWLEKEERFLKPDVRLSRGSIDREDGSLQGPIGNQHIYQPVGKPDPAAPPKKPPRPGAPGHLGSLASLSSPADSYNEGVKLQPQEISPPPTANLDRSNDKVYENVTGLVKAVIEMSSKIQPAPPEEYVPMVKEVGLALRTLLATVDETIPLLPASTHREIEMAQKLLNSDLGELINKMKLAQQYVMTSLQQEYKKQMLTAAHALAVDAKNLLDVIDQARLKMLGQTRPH

B1: nucleolar MIF4G domain-containing protein 1 (protein, UniProt Q5C9Z4 1-860)
chain: MAASRSAGEAGPGGSQGRVVRMKRRGGRGPRRGPAGGGEKALKRLKLAVEEFVHATSEGEAPGGCEGRGAPVSFRPGGRKSRKELRKEKRHLRKARRLQRTAGPEQGPGLGGRSGAEEASGHRQDTEERARPAPSRDPSPPRKPRPSRVKAKATAATAKTRPSAAATAAARKRALLAANEEEDREIRKLERCLGLNKRKKKDGSSSVPLSFARDGLDYILGALESGKNSGLYDSSGEEEEDAGQTLPESDLESDSQDESEEEEEGDVEKEKKAQEAEAQSEDDDEDTEEEQGEEKEKGAQEKRRGKRVRFAEDEEKSENSSEDGDITDKSLCGSGEKYIPPHVRQAEETVDFKKKEELERLKKHVKGLLNRLSEPNMASISGQLEELYMAHSRKDMNDTLTSALMGACVTASAMPSRLMMEHVLLVSILHHTVGIEVGAHFLEAVVRKFDAIYKYGSEGKECDNLFTVIAHLYNFHVVQSLLIFDILKKLIGTFTEKDIELILLMLKNVGFSLRKDDALSLKELITEAQTKASGAGSEFQDQTRIRFMLETMLALKNNDMRKIPGYDPEPVEKLRKLQRALVRNAGSGSETQLRVSWDSVLSAEQTGRWWIVGSAWSGAPMIDNSHHTHLQKQLVGTVSSKILELARKQRMNTDIRRNIFCTIMTSEDFLDAFEKLLKLGLKDQQEREIIHVLMDCCLQEKTYNPFYAFLASKFCEYERRFQMTFQFSIWDKFRDLENLPATNFSNLVHLVAHLLKTKSLSLSILKVVEFSELDKPRVRFLRKVLSILLMETEVEDLSLIFTRVSDNPKLGVLREGLKLFISHFLLKNAQAHRSADEANVLREKADLATKCLQGKASLRM
B2: RRP12-like protein (protein, UniProt Q5JTH9-1 1-1297)
chain: MGRSGKLPSGVSAKLKRWKKGHSSDSNPAICRHRQAARSRFFSRPSGRSDLTVDAVKLHNELQSGSLRLGKSEAPETPMEEEAELVLTEKSSGTFLSGLSDCTNVTFSKVQRFWESNSAAHKEICAVLAAVTEVIRSQGGKETETEYFAALMTTMEAVESPESLAAVAYLLNLVLKRVPSPVLIKKFSDTSKAFMDIMSAQASSGSTSVLRWVLSCLATLLRKQDLEAWGYPVTLQVYHGLLSFTVHPKPKIRKAAQHGVCSVLKGSEFMFEKAPAHHPAAISTAKFCIQEIEKSGGSKEATTTLHMLTLLKDLLPCFPEGLVKSCSETLLRVMTLSHVLVTACAMQAFHSLFHARPGLSTLSAELNAQIITALYDYVPSENDLQPLLAWLKVMEKAHINLVRLQWDLGLGHLPRFFGTAVTCLLSPHSQVLTAATQSLKEILKECVAPHMADIGSVTSSASGPAQSVAKMFRAVEEGLTYKFHAAWSSVLQLLCVFFEACGRQAHPVMRKCLQSLCDLRLSPHFPHTAALDQAVGAAVTSMGPEVVLQAVPLEIDGSEETLDFPRSWLLPVIRDHVQETRLGFFTTYFLPLANTLKSKAMDLAQAGSTVESKIYDTLQWQMWTLLPGFCTRPTDVAISFKGLARTLGMAISERPDLRVTVCQALRTLITKGCQAEADRAEVSRFAKNFLPILFNLYGQPVAAGDTPAPRRAVLETIRTYLTITDTQLVNSLLEKASEKVLDPASSDFTRLSVLDLVVALAPCADEAAISKLYSTIRPYLESKAHGVQKKAYRVLEEVCASPQGPGALFVQSHLEDLKKTLLDSLRSTSSPAKRPRLKCLLHIVRKLSAEHKEFITALIPEVILCTKEVSVGARKNAFALLVEMGHAFLRFGSNQEEALQCYLVLIYPGLVGAVTMVSCSILALTHLLFEFKGLMGTSTVEQLLENVCLLLASRTRDVVKSALGFIKVAVTVMDVAHLAKHVQLVMEAIGKLSDDMRRHFRMKLRNLFTKFIRKFGFELVKRLLPEEYHRVLVNIRKAEARAKRHRALSQAAVEEEEEEEEEEEPAQGKGDSIEEILADSEDEEDNEEEERSRGKEQRKLARQRSRAWLKEGGGDEPLNFLDPKVAQRVLATQPGPGRGRKKDHGFKVSADGRLIIREEADGNKMEEEEGAKGEDEEMADPMEDVIIRNKKHQKLKHQKEAEEEELEIPPQYQAGGSGIHRPVAKKAMPGAEYKAKKAKGDVKKKGRPDPYAYIPLNRSKLNRRKKMKLQGQFKGLVKAARRGSQVGHKNRRKDRRP

Target: Focal adhesion kinase 1 (human (endogenous in HCT-116)) (UniProt Q05397)
Assay: affinity purification with mass spectrometry; anti-FAK polyclonal antibody and Protein A/G agarose on 1.5 mg HCT-116 total cell lysate, cells untreated (regular IP) or stimulated with 10 ng/ml EGF for 30 min; rabbit IgG as control; 1D SDS-PAGE, in-gel trypsin digestion, nano-LC-MS/MS; the proteins of Table 2 were found only with EGF …

Binder | binding
B1 | binds
B2 | binds
